Source: PubChem BioAssay AID1508597 (Cure First, 2020)

Assay: 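Genes whose silencing sensitises or protects ovarian cancer cells against rucaparib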 (primary screen)
Cells: human ovarian carcinoma lines grown from tumours: OCI-P5x (papillary serous) and OCI-C5x (clear cell)
Knock-down reagent: siRNA pool against human genes, 1.25 pmol siRNA per well
Duration: 72 h or 96 h, depending on the cell culture
Treatment: rucaparib 20 µM (about IC30) or vehicle, present until read-out
Measurement: 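ATP luminescence measured at 72 or 96 h according to the culture, then normalised and expressed as percent viability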
Scale: viability, normalised: higher = more viable cells remaining
Hit rule: 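a well counts as a hit if its normalised viability is under 80 percent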
Meaning of the calls: active = viability under 80%; inactive = viability 80% or more
Here is one part, drawn at random, of about 2,100 deposited reagents. 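Calls flag viability under 80% in either arm, not effects specific to rucaparib; the reference for percent is not stated.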 A number with no mark means an inactive call. Not stated in the record: the 100% reference.

| gene | PubChem SID | rucaparib or vehicle | cell line | technical replicate | viability, normalised (%) |
| --- | --- | --- | --- | --- | --- |
| FRK (fyn related Src family tyrosine kinase) | SID405527613 | Rucaparib | OCI-C5x (clear cell) | 1 | 43 (active) |
| FRK (fyn related Src family tyrosine kinase) | SID405527613 | Rucaparib | OCI-C5x (clear cell) | 2 | 64.1 (active) |
| FRK (fyn related Src family tyrosine kinase) | SID405527613 | Rucaparib | OCI-C5x (clear cell) | 3 | 60.2 (active) |
| FRK (fyn related Src family tyrosine kinase) | SID405527613 | Rucaparib | OCI-P5x (serous) | 1 | 83 |
| FRK (fyn related Src family tyrosine kinase) | SID405527613 | Rucaparib | OCI-P5x (serous) | 2 | 82.8 |
| FRK (fyn related Src family tyrosine kinase) | SID405527613 | Rucaparib | OCI-P5x (serous) | 3 | 71.3 (active) |
| FRK (fyn related Src family tyrosine kinase) | SID405527613 | Vehicle | OCI-C5x (clear cell) | 1 | 71 (active) |
| FRK (fyn related Src family tyrosine kinase) | SID405527613 | Vehicle | OCI-C5x (clear cell) | 2 | 58.2 (active) |
| FRK (fyn related Src family tyrosine kinase) | SID405527613 | Vehicle | OCI-C5x (clear cell) | 3 | 73.6 (active) |
| FRK (fyn related Src family tyrosine kinase) | SID405527613 | Vehicle | OCI-P5x (serous) | 1 | 86.9 |
| FRK (fyn related Src family tyrosine kinase) | SID405527613 | Vehicle | OCI-P5x (serous) | 2 | 74.6 (active) |
| FRK (fyn related Src family tyrosine kinase) | SID405527613 | Vehicle | OCI-P5x (serous) | 3 | 86.3 |

Laid out differently: results already given
{"gene":"FRK (fyn related Src family tyrosine kinase)","PubChem SID":"SID405527613","rucaparib or vehicle":"Rucaparib","cell line":"OCI-P5x (serous)","technical replicate":"1","viability, normalised (%)":83}
{"gene":"FRK (fyn related Src family tyrosine kinase)","PubChem SID":"SID405527613","rucaparib or vehicle":"Rucaparib","cell line":"OCI-P5x (serous)","technical replicate":"2","viability, normalised (%)":82.8}
{"gene":"FRK (fyn related Src family tyrosine kinase)","PubChem SID":"SID405527613","rucaparib or vehicle":"Rucaparib","cell line":"OCI-P5x (serous)","technical replicate":"3","viability, normalised (%)":"71.3 (active)"}

Additional records follow.
| gene | PubChem SID | rucaparib or vehicle | cell line | technical replicate | viability, normalised (%) |
| --- | --- | --- | --- | --- | --- |
| ZNF384 (zinc finger protein 384) | SID405526401 | Rucaparib | OCI-C5x (clear cell) | 1 | 56.5 (active) |
| ZNF384 (zinc finger protein 384) | SID405526401 | Rucaparib | OCI-C5x (clear cell) | 2 | 56.2 (active) |
| ZNF384 (zinc finger protein 384) | SID405526401 | Rucaparib | OCI-C5x (clear cell) | 3 | 48.6 (active) |
| ZNF384 (zinc finger protein 384) | SID405526401 | Rucaparib | OCI-P5x (serous) | 1 | 67.6 (active) |
| ZNF384 (zinc finger protein 384) | SID405526401 | Rucaparib | OCI-P5x (serous) | 2 | 61.8 (active) |
| ZNF384 (zinc finger protein 384) | SID405526401 | Rucaparib | OCI-P5x (serous) | 3 | 70.9 (active) |
| ZNF384 (zinc finger protein 384) | SID405526401 | Vehicle | OCI-C5x (clear cell) | 1 | 63.7 (active) |
| ZNF384 (zinc finger protein 384) | SID405526401 | Vehicle | OCI-C5x (clear cell) | 2 | 58.1 (active) |
| ZNF384 (zinc finger protein 384) | SID405526401 | Vehicle | OCI-C5x (clear cell) | 3 | 49.7 (active) |
| ZNF384 (zinc finger protein 384) | SID405526401 | Vehicle | OCI-P5x (serous) | 1 | 55.2 (active) |
| ZNF384 (zinc finger protein 384) | SID405526401 | Vehicle | OCI-P5x (serous) | 2 | 57.7 (active) |
| ZNF384 (zinc finger protein 384) | SID405526401 | Vehicle | OCI-P5x (serous) | 3 | 57.3 (active) |
